From article PMC3849192, “A Simple Method for Assessing Free Brain/Free Plasma Ratios Using an In Vitro Model of the Blood Brain Barrier” (PLoS ONE, 2013) come the findings set out here.

The procedure of data set [1]: The degree of brain binding was assessed by equilibrium dialysis. Brain homogenate (10%) was spiked with test compound at 1 µM in triplicate. […] The plate was then placed in a shaker/incubator to equilibrate for 18 hrs at 37°C. […] After the addition of 50 µl of buffer to the brain homogenate samples, 150 µl of acetonitrile was added to each sample. Finally, 50 µl of water was added to all buffer and brain homogenate samples. The plates were centrifuged and the supernatant analyzed by LC-MS/MS.

For data set [2] the following is noted: male, Sprague-Dawley, rat. The procedure:
Rats (male Sprague-Dawley) were decapitated under isoflurane anesthesia and the brains were removed carefully and immersed in ice-cold oxygenated physiological buffer at pH7.4. A 6 mm coronal section was cut with a razor and mounted with cyanoacrylate glue onto the tray of the microslicer (DTK-Zero 1 Microslicer, Dosak) after which six to eight 300 µm coronal slices from striatal areas were prepared. […] The compounds were dissolved at 1 µM in the buffer and the solution was incubated with the slice for 5 h.
After 5 h, the brain slices were weighed and homogenized in 9 volumes (w/v) of ECF buffer with a sonicator (SONICS VCX 500 and VCX 130). The slice homogenates in ECF buffer were stored at −20°C prior to analysis. The concentrations of the test compound in the brain slice homogenate and in the ECF buffer was determined by LC-MS/MS.
The unbound volume of distribution Vu,brain, or free fraction fu,brain was calculated according to the following equations: [drawing 1] [drawing 2] where Cslice, CECF and V0 are amount of drug in the slice, the drug concentration in the ECF (representing the drug concentration in the brain ECF, i.e. the free concentration), and the water adhesion of the brain slice. V0 has been estimated using ^14C -inulin in a separate experiment in which brain slices were incubated for 1, 2, and 4 min. […]

`CN1C(=O)CN=C(c2ccccc2)c2cc(Cl)ccc21` [Diazepam]: the “fubrain (homog.) Mean” value in data set [1] is listed as 0.0500. Moreover, the “fubrain (slice) Mean” value in data set [2] was found to be 0.0500.
Turning to `CN1CC[C@]23c4c5ccc(O)c4O[C@H]2[C@@H](O)C=C[C@H]3[C@H]1C5` [Morphine], in data set [1], the “fubrain (homog.) Mean” value is reported as 0.5000. Further, the “fubrain (slice) Mean” value in data set [2] stood at 0.3700.
